Laboratory results published in US20230003717A1, “USE OF SYNAPTOTAGMIN-7 IN THE DIAGNOSIS AND TREATMENT OF BIPOLAR DISORDER” (TSINGHUA UNIVERSITY, priority 2020, published 2023).
At least one compound was matched to its structure with a doubt left.

How the values were obtained:
Format in all cases: in vivo
[1] = system: Syt7 KO mice; experiment: learned helplessness (LH) test, Syt7 KO mice; settings: high dose 1.0 mg/kg, night phase and day phase, vs untreated KO mice
Procedure: (§1) Considering that the FST/TS tests can not represent all the characterizations of human disease, a learned helplessness (LH) test and a sucrose preference test (SPT) were conducted. LH is associated with depression. In the LH test, the escape failure number of mice is an indicator for determining the depression of animal due to external pressure. A higher escape failure number indicates a more significant depression. SPT is associated with anhedonia. The proportion of sucrose preference of the mice can serve as an indicator for determining the anhedonia severity of the mice. A higher proportion of sweet preference indicates an enhancement in hedonic feeling.
(§2) Then, the LH/SPT/LDB behavioral paradigms were adopted for detecting the effect of high-dose olanzapine treatment (1.0 mg/kg) on abnormal behaviors of the Syt7 KO mice.
(§3) The effect of clinical BD treatment lithium on behavioral abnormalities in Syt7 KO mice was then tested.

[2] = system: Syt7 KO mice; experiment: forced swim test (FST), Syt7 KO mice
Procedure: The 11 genes in the DG region of the mice were knocked down using shRNA virus. The mice were subject to a forced swim test (FST), and the immobility time of the mice was analyzed. The immobility time is an indicator that reflects the feeling of despair of the mice, and a longer immobility time indicates a more serious feeling of despair. The result is shown in panel C in FIG. 1.
The behaviors of Syt7 KO mice (i.e., Syt7-knockout mice) were then examined in the FST test.
Syt7 KO mice were first treated with the atypical antipsychotic olanzapine (OLZ) and observed for the dose dependence (administered with doses of 0.2 mg/kg, 0.5 mg/kg and 1.0 mg/kg) (using ANOVA statistical method). […] Without being limited by theory, this may be associated with an antidepressant effect of olanzapine in treating BD patients.
as §3

[3] = system: Syt7 KO mice; experiment: sucrose preference test (SPT), Syt7 KO mice; settings: high dose 1.0 mg/kg, night phase and day phase, vs untreated KO mice
Procedure: as §1, §2, §3

[4] = system: Syt7 KO mice; experiment: light-dark box (LDB) test, Syt7 KO mice; settings: high dose 1.0 mg/kg, night phase and day phase, vs untreated KO mice
Procedure: Since BD patients often had clinical symptoms of anxiety, a light-dark box (LDB) test was conducted to observe anxiety-like behaviors in the Syt7 KO mice.
as §2, §3

Q: Which “number of escapes in the LH test” value [1] does the source give for `Cc1cc2c(s1)Nc1ccccc1N=C2N1CCN(C)CC1` [olanzapine] here?
A: The value was “significantly increased number of escapes”.

Q: What about the “immobility time in FST” value ([2]; high dose (1.0 mg/kg) intraperitoneal, day phase) of the same compound?
A: The value was “extended the immobility time in the day phase”.

Q: And the “immobility time in FST” value ([2]; low dose (0.2 mg/kg) intraperitoneal, day phase)?
A: Its value is “reduced the immobility time of Syt7 KO mice in the day phase”.

Q: What about the “immobility time in FST” value ([2]; medium dose (0.5 mg/kg) intraperitoneal, night phase, vs untreated group) of the same compound?
A: The value was “the shorter immobility time in the night phase was reversed”.

Q: And the “sucrose preference (SPT)” value [3]?
A: Its value is “reduced sucrose preference”.

Q: And the “time spent in the light compartment in the LDB test” value [4]?
A: Its value is “reduced time spent in the light compartment”.
